# Values quoted from earlier work, collected in US20060025476A1, “Use of methyl pyruvate for the purpose of reducing weight gain in mammals” (priority 2004, published 2006).
# Sequences of proteins named here, by UniProt entry; tags and fusion partners are left off. A change or cut given only in a name is not applied to a line headed by its entry.
# UniProt Q09428: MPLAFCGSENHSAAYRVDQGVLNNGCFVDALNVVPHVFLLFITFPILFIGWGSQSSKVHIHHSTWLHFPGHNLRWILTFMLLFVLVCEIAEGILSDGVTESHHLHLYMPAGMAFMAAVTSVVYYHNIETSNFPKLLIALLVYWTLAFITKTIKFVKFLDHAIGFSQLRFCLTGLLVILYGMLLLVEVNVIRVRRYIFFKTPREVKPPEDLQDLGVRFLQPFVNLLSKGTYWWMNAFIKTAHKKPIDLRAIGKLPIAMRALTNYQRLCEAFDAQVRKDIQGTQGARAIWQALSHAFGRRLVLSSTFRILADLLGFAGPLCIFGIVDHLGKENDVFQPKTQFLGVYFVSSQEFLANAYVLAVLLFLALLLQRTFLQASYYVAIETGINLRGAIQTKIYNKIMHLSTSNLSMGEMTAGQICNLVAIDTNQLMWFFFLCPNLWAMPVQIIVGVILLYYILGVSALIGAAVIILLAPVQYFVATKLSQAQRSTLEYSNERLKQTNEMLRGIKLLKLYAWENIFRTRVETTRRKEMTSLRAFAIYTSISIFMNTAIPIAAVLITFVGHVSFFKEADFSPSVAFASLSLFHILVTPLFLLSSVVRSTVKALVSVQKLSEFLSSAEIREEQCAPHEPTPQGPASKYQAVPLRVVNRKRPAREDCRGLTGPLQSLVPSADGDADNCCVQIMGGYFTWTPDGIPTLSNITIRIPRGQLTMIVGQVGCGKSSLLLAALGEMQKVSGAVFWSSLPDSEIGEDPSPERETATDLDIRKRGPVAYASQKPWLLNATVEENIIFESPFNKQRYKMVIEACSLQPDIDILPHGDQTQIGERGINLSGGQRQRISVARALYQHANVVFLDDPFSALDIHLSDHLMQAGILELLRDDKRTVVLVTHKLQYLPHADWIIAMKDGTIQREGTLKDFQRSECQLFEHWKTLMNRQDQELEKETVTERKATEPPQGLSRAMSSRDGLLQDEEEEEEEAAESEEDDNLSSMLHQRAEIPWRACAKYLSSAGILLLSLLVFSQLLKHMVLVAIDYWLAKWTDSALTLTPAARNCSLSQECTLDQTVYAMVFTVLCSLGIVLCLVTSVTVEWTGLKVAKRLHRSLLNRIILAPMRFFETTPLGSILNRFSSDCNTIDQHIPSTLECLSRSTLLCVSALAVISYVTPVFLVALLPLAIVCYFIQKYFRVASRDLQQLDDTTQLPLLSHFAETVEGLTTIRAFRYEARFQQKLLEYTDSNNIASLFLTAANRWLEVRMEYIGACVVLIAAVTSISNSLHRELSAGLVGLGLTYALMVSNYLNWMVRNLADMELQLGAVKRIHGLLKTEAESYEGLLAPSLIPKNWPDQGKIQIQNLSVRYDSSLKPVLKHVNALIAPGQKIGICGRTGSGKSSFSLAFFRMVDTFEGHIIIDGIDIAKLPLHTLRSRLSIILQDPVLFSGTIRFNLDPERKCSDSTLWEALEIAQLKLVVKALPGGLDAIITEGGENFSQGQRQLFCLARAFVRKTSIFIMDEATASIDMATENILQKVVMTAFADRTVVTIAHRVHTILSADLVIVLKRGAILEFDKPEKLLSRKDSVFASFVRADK
# UniProt Q14654: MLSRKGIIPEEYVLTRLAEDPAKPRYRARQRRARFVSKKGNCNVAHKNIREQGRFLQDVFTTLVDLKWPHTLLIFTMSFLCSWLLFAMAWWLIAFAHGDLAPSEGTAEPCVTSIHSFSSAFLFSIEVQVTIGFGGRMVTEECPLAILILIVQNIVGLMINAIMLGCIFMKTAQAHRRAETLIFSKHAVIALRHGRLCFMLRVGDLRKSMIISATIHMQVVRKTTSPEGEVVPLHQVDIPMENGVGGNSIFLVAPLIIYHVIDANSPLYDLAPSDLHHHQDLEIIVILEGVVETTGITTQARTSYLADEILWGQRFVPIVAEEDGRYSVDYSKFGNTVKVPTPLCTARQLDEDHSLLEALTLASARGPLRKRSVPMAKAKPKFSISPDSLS
# At least one compound was matched to its structure with a doubt left.
# What was measured:
# [1] = test system: human subcutaneous white adipocytes
# [2] = test system: fetal rat brown adipocyte primary cultures
# pancreatic beta-cells [3] = test system: pancreatic beta-cells
# K(ATP) channels = target: T1, K(ATP) channels (Homo sapiens, UniProt Q09428+Q14654)
# T1 construct: endogenous in cells; host or cells: pancreatic beta-cells
# whole islets = conditions: 5 mM
# [4] = test system: isolated rat pancreatic islets; conditions: compared with methyl pyruvate
# [5] = test system: isolated pancreatic islets
# [6] = test system: porcine carotid artery strips; conditions: 10 mm in PSS
# pancreatic beta-cells [7] = conditions: 5-20 mM
smiles,measurement,setting,value
CN(CCOc1ccc(CC2SC(=O)NC2=O)cc1)c1ccccn1 (centres unmarked) [rosiglitazone],adipogenic gene expression or lipid accumulation,UCP-1 mRNA expression,no positive effect
same,effect of PGC-1alpha on UCP1 expression and fatty acid oxidation,[1],potentiated
same,p44/p42 and p38 mitogen-activated protein kinase activation,[2],induce
CC(=O)C(=O)O [pyruvate],initiation of insulin release,pancreatic beta-cells [3]; 5-20 mM,failed to initiate insulin release
same,stimulation of insulin secretion,pancreatic beta-cells [3]; islets,no stimulation
same,block of KATP,K(ATP) channels,did not block
same,whole islet insulin secretion,pancreatic islets,did not generate insulin secretion
same,NADH and NADPH response,pancreatic islets; NAD(P)H imaging with LipDH autofluorescence,raises cellular NADPH without raising NADH
same,NAD(P)H response,pancreatic islets; compared with glucose,much lower NAD(P)H response
same,ATP/ADP ratio in whole islets,whole islets,no effect
same,increasing lactate output and generating L-alanine,[4],more efficient than methyl pyruvate
same,45Ca efflux and 45Ca net uptake,[5],inhibition of 45Ca efflux and a stimulation of 45Ca net uptake
same,lipogenesis,[5],modestly stimulates
same,oxidation of [2-14C]pyruvate as share of the rate of [1-14C]pyruvate decarboxylation,[5],64%
same,oxidation of endogenous nutrients,[5],markedly inhibits
same,oxidation of glucose,[5],inhibits
same,rate of glycolysis,[5],does not affect
same,"concentration of ATP, ADP and AMP in the islet cells",[5]; 30 mM,does not affect
same,glucose concentration evoking an equivalent shift of the insulin release curve,[5]; 30 mM pyruvate,2 mM
same,net generation of reducing equivalents,"[5]; 30 mM, corrected for conversion into lactate",about 314 pmol of reducing equivalents/120 min per islet
same,concentration of reduced nicotinamide nucleotides,"[5]; 30 mM, in the presence but not in the absence of glucose",increases
same,increase of O2 consumption,[6],approximately 45%
same,depolarization of beta-cell membrane potential,pancreatic beta-cells [7],failed
